From the supplement of paper PMC6411743
± gives the standard deviation of the averaged measurements. The list shows a part of the results.

Key:
Experiment in all cases: NP40-soluble protein abundance relative to vehicle (solubility fold change) (ratio); higher = more soluble protein in presence of GTP
[1] = target: T1, UniProt Q14697 and related entries
T1 sequence (whole entry): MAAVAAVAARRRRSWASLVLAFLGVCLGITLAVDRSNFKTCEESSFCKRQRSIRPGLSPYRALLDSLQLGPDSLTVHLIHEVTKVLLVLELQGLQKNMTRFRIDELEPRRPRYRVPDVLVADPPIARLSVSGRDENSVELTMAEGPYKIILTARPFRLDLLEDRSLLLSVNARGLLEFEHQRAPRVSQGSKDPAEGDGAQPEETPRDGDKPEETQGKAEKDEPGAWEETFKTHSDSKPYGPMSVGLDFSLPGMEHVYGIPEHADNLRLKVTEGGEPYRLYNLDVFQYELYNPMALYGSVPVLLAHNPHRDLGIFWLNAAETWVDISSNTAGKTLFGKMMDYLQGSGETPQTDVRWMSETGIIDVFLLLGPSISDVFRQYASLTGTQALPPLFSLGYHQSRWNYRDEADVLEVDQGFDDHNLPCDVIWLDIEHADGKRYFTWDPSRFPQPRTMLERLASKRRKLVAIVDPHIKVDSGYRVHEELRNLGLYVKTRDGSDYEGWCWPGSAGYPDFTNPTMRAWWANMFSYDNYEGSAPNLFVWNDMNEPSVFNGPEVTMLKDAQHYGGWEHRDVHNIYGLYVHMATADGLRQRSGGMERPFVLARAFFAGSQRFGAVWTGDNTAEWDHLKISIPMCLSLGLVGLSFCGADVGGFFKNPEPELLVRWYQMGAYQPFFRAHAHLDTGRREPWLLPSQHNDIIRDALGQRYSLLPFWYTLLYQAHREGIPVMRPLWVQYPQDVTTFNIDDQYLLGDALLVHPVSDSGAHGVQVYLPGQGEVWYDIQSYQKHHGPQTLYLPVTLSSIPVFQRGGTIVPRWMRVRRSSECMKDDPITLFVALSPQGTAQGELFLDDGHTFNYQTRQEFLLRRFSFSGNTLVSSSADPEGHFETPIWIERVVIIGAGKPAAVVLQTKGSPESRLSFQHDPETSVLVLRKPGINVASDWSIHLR
Outline: (§1)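 Jurkat crude lysate prepared with a Dounce homogeniser was treated at eight concentrations spanning 0.1 to 10 mM, 10 min at room temperature then 3 min at 37 °C. Solubilisation with 0.8% NP40 and benzonase and ultracentrifugation preceded TMT labelling of the supernatant for LC-MS/MS. Fold change against the detergent-processed vehicle was determined per replicate from vsn-normalised intensities, across three independent experiments.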

[2] = target: T2, UniProt Q15398 and related entries
T2 sequence (whole entry): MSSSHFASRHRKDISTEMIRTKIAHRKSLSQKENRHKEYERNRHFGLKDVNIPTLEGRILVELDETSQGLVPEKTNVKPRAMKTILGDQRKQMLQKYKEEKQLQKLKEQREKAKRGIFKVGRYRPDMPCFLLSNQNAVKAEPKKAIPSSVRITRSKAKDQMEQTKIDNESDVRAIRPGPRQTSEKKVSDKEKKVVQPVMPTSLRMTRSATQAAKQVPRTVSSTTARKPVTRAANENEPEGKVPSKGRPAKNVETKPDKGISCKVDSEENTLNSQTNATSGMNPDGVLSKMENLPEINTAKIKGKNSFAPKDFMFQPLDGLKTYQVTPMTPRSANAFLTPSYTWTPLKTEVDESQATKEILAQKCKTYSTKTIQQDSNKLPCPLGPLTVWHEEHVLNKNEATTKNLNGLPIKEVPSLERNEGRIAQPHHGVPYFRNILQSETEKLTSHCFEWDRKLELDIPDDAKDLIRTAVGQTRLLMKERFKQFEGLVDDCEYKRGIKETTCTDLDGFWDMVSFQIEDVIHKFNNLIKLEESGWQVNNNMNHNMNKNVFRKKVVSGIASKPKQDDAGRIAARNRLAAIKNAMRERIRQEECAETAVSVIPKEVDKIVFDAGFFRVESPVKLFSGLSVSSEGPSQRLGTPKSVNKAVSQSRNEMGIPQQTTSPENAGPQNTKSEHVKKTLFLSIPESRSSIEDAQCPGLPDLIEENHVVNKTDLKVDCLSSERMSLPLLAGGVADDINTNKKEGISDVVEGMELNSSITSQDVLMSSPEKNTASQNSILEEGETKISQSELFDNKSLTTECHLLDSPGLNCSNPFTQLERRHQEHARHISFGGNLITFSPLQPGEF
Outline: as §1

[3] = target: T3, UniProt Q15723 and related entries
T3 sequence (whole entry): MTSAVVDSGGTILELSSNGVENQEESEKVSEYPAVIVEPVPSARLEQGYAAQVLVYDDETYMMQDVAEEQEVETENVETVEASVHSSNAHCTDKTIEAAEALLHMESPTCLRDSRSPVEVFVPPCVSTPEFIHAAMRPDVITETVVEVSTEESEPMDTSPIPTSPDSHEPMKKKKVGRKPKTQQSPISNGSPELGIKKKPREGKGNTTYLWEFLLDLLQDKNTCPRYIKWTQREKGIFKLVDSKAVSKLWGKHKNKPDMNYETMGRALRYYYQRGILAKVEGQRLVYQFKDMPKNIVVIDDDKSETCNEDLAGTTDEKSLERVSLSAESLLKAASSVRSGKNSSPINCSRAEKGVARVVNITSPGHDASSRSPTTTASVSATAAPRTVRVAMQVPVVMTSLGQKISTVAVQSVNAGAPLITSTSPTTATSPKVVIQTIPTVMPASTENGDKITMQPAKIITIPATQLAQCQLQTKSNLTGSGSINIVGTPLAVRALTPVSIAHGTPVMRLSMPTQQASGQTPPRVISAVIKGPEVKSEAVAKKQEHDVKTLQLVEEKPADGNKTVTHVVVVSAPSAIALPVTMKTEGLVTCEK
Outline: as §1

[4] = target: T4, UniProt Q15813 and related entries
T4 sequence (whole entry): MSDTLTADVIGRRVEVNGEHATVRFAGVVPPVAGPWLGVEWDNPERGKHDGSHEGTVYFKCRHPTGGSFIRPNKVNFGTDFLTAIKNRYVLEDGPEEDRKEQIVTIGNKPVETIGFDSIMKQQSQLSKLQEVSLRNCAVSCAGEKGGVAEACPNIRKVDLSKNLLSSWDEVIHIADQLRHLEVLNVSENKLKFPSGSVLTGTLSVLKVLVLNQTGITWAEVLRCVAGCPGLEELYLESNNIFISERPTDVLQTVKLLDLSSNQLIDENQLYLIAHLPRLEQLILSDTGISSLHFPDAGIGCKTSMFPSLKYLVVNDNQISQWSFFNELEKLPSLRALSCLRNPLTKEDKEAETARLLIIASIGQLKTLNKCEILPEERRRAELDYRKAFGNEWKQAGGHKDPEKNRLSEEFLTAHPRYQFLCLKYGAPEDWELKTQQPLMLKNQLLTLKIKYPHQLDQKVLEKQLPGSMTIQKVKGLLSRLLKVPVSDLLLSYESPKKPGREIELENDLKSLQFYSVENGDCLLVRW
Outline: as §1

Nc1nc2c(ncn2[C@@H]2O[C@H](COP(=O)(O)OP(=O)(O)OP(=O)(O)O)[C@@H](O)[C@H]2O)c(=O)[nH]1 [guanosine triphosphate]
NP40-soluble protein abundance ([1]; concentration: 0.1mM): 1.03 ± 0.062 | NP40-soluble protein abundance ([1]; concentration: 0.5mM): 1.03 ± 0.069 | NP40-soluble protein abundance ([1]; concentration: 1mM): 0.897 ± 0.03 | NP40-soluble protein abundance ([1]; concentration: 2mM): 0.935 ± 0.081 | NP40-soluble protein abundance ([1]; concentration: 4mM): 0.921 ± 0.065 | NP40-soluble protein abundance ([1]; concentration: 6mM): 0.887 ± 0.044 | NP40-soluble protein abundance ([1]; concentration: 8mM): 0.843 ± 0.042 | NP40-soluble protein abundance ([1]; concentration: 10mM): 0.837 ± 0.064 | NP40-soluble protein abundance ([2]; concentration: 0.1mM): 1.02 ± 0.021 | NP40-soluble protein abundance ([2]; concentration: 0.5mM): 0.975 ± 0.026 | NP40-soluble protein abundance ([2]; concentration: 1mM): 0.997 ± 0.032 | NP40-soluble protein abundance ([2]; concentration: 2mM): 0.942 ± 0.022 | NP40-soluble protein abundance ([2]; concentration: 4mM): 0.986 ± 0.042 | NP40-soluble protein abundance ([2]; concentration: 6mM): 0.924 ± 0.032 | NP40-soluble protein abundance ([2]; concentration: 8mM): 0.99 ± 0.029 | NP40-soluble protein abundance ([2]; concentration: 10mM): 0.938 ± 0.032 | NP40-soluble protein abundance ([3]; concentration: 0.1mM): 1.03 ± 0.06 | NP40-soluble protein abundance ([3]; concentration: 0.5mM): 1.07 ± 0.092 | NP40-soluble protein abundance ([3]; concentration: 1mM): 1.09 ± 0.03 | NP40-soluble protein abundance ([3]; concentration: 2mM): 1.01 ± 0.024 | NP40-soluble protein abundance ([3]; concentration: 4mM): 1.01 ± 0.065 | NP40-soluble protein abundance ([3]; concentration: 6mM): 1.08 ± 0.059 | NP40-soluble protein abundance ([3]; concentration: 8mM): 1.066 ± 0.0098 | NP40-soluble protein abundance ([3]; concentration: 10mM): 1.01 ± 0.012 | NP40-soluble protein abundance ([4]; concentration: 0.1mM): 0.982 ± 0.018 | NP40-soluble protein abundance ([4]; concentration: 0.5mM): 0.993 ± 0.039 | NP40-soluble protein abundance ([4]; concentration: 1mM): 0.92 ± 0.052 | NP40-soluble protein abundance ([4]; concentration: 2mM): 0.914 ± 0.038
